Experimental data taken from publication PMC11187563 (RSC Medicinal Chemistry, 2024).

Assay: general procedure: peptide synthesis; CTC-resin; HATU/HOBt/DIPEA
Details: late stage modification step, TFA salt

For FY-Suc-TFP, the step yield was 90%.
